83 compounds from PubChem BioAssay AID1347431 (National Center for Advancing Translational Sciences (NCATS), 2020) can be followed below.

Values joined by “and” are separate entries in the source; they are usually repeats but may differ in a detail not shown here. Identical values can stand only once. The whole screen tested about 1,200 compounds, of which fewer than 10 were called active. Calls follow the shape of the dose curve; as a rule, active = well fitted curve in the direction sought with a large enough effect; inconclusive = small, poorly fitted or top-dose-only effect, or another doubt; inactive = no such curve, though single readings can be large or run the other way. Some of the results follow.

A short description of the assay: Confirmatory qHTS assay for inhibitors of Activation Induced Cytidine Deaminase (AID): UDG signals. Also: 0% is about no effect. To be noted: UDG coupled enzyme activity counter-screen; at 115 µM (top of the series) unless noted. The procedure, abridged:
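UDG readout, a counterscreen: AID (1 uM, 4/3x) plus UDG (2 U/mL, 4/3x) preincubated 10 min with compound (7.32 nM - 114 uM final), then 4 h with DJC20/DJC23 substrates at room temperature; NaOH added, fluorescence read at 560/665 nm.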
(In general: In qHTS, concentration-response curves come from the screen itself.)
On to `Cc1ccc2c(c1)-c1c(cnn1CC(=O)N1CCN(c3cc(C)ccc3C)CC1)CO2`, for which the activity change, negative = inhibition was inactive: -3.23%.
With `Cc1ccc(-c2n[nH]c3c2C(c2ccccc2Cl)N(c2ccc(C(=O)O)cc2)C3=O)cc1` (stereo not drawn), the activity change, negative = inhibition was inactive: 3.17%.
As for `COc1ccc(OC)c(NC(=O)N2CC(C)Oc3ccc(C)cc32)c1` (stereo not drawn), the activity change, negative = inhibition was inactive: 0.232%.
The same measure for `Cc1ccc(OCC(=O)N(Cc2ccc(Cl)cc2)CC2CCCO2)cc1C` (stereo not drawn): inactive: -3.71%; for `Cc1ccc(C)c(CNC(=O)c2cnc3sc(N4CCCC4)nn3c2=O)c1`: inactive: 6.28%; for `CCOC(=O)C1=C(CN(CC)Cc2ccccc2)NC(=O)NC1c1ccc(OC(C)C)cc1` (stereo not drawn): inactive: -13.6%.
The same measure for `COc1ccc(CCN2CCC(CNC(=O)c3cnn(-c4ccccc4)c3C3CCN(C(=O)OC(C)(C)C)CC3)CC2)cc1`: inactive: -5.77%; for `Cc1ccc(Cc2nc3ccccc3nc2SCC(=O)N2CCCCC2C)cc1` (stereo not drawn): inactive: -3.62%.
The figure for `Cc1cccn2c(=O)c3cc(C(=O)N(Cc4ccccc4)C(C)C)sc3nc12` is inactive: 3.34%; for `CCOc1ccccc1NC(=O)CSC1=Nc2ccccc2C2=NC(CC(=O)NC3CCCCC3)C(=O)N12` (stereo not drawn) it is inactive: 7.19%; for `CCOc1ccc(NC(=O)CN(C)S(=O)(=O)c2ccc3c(c2)c(=O)n(C)c(=O)n3C)cc1` it is inactive: 9.06%.
As for `CC(C)(C)OC(=O)N1CCC(c2c(C(=O)NCCN3CCOCC3)cnn2-c2ccccc2)CC1`, the activity change, negative = inhibition was inactive: -16.3%.
On to `COc1ccc2c(C)cc(SCC(=O)Nc3nsc(-c4ccc(C(C)(C)C)cc4)n3)nc2c1`, for which the activity change, negative = inhibition was inactive: -8.69%.
For `CCn1cc2nc(SCc3cccc(C(F)(F)F)c3)n(CCc3ccccc3)c(=O)c2n1`, the activity change, negative = inhibition is inactive: -6.4%.
The same measure for `Fc1ccc(CNc2ncnc3onc(-c4ccc(F)cc4)c23)cc1`: inactive: 1.53%.
As for `CCCN(CCC)CC(O)Cn1cc(/C=C/C(=O)c2ccc(C)cc2)c2ccccc21` (stereo not drawn), the activity change, negative = inhibition was inactive: -5.18%.
In the case of `CCC(Oc1ccccc1F)C(=O)N1CCC(c2nc3ccccc3s2)CC1` (stereo not drawn), the activity change, negative = inhibition was inactive: -1.92%.
The same measure for `COc1ccccc1Cn1cc(C(=O)c2ccc(C)cc2)c(=O)c2cc(C)ccc21`: inactive: -1.74%; for `COc1ccc(N2CCN(Cc3cccn3-c3nnc(N4CCN(C5CCCCC5)CC4)s3)CC2)cc1`: inactive: -7.16%.
`N#CC1=C2SCN(C3CCCCC3)CN2C(=O)CC1c1c(F)cccc1Cl` (stereo not drawn): the activity change, negative = inhibition is inactive: -4.69%.
In the case of `CCOC(=O)c1ccc(-c2ccc(/C=C(\C#N)c3nc4ccc(C)cc4[nH]3)o2)cc1`, the activity change, negative = inhibition was inactive: -7.54%.
`CCCN1CCN(c2cc3c(cc2F)c(=O)c(S(=O)(=O)c2ccc(CC)cc2)cn3CC)CC1`: the activity change, negative = inhibition is inactive: 4.81%.
Take `Cc1ccc(-c2ccc(=O)n(CC(=O)Nc3ccc(C)cc3Cl)n2)cc1`: the activity change, negative = inhibition was inactive: 3.58%.
The same measure for `CCOC(=O)c1ccc(-n2c(CCC(=O)O)ccc2-c2ccc(Br)cc2)cc1`: inactive: 9.47%; for `COc1ccc(CC(=O)Nc2sc3c(c2C(=O)Nc2cccc(Cl)c2)CCCCC3)cc1`: inactive: -4.6%; for `COCCNC(=O)c1ccc2c(c1)N(Cc1ccc(C(F)(F)F)cc1)C(=O)c1ccccc1S2`: inactive: 2.3%.
As to `Cc1cccc(OCCCSc2nc(-c3ccc(C(C)(C)C)cc3)nc3cc(=O)[nH]n23)c1C`, the activity change, negative = inhibition was inactive: -7.96%.
The same measure for `COc1ccc2c(c1)Cc1sc(NC(=O)c3ccc(Cl)cc3)nc1-2`: inactive: -15.8%.
Take `N#C/C(=C\c1ccc(-c2ccc(Cl)c(C(=O)O)c2)o1)c1nc2ccccc2[nH]1`: the activity change, negative = inhibition was inactive: 0.178%.
The same measure for `Oc1ccc(NCc2ccccc2OCc2ccccc2Cl)cc1`: inactive: -17.6%; for `CCCCCCCCCCCCCCSCC(=O)O`: inactive: -3.59%; for `CCCCN(CC)CCCNC(=O)c1ccc2c(c1)N(Cc1ccc(C)cc1)C(=O)c1ccccc1S2`: inactive: -3.62%.
`CC1CCCN(C(=O)c2ccc(CSc3nc4ccncc4n3Cc3ccccc3)cc2)C1` (stereo not drawn): the activity change, negative = inhibition is inactive: -2.52%.
The figure for `COc1cccc(-c2nc3cc(NC(=O)c4ccc(C)c([N+](=O)[O-])c4)ccc3o2)c1` is inactive: 5.87% and inactive: -7.73%.
The figure for `Cc1ccc(CNC(=O)C2CCCN(c3nc4ccccc4n4cccc34)C2)cc1` (stereo not drawn) is inactive: -0.725%; for `CC(C)(C)OC(=O)N1CCC(c2c(C(=O)N3CCC(c4ccccc4)C3)cnn2-c2cccc(Cl)c2)CC1` (stereo not drawn) it is inactive: 2.5%; for `CCCCN(CCCC)C(=O)c1cc2c(=O)n3cccc(C)c3nc2s1` it is inactive: -1.48%.
On to `COc1cccc(CNC(=O)c2cc3c(s2)-c2ccccc2OC3)c1`, for which the activity change, negative = inhibition was inactive: -7.73%.
In the case of `Cc1ccc(-c2nc3sc(CCNC(=O)c4ccc(Br)o4)c(C)n3n2)cc1`, the activity change, negative = inhibition was inactive: -10%.
For the compound `Cc1nc2c(C(=O)NCc3ccccc3)c[nH]n2c(=O)c1Cc1ccccc1Cl`, the activity change, negative = inhibition was inactive: 4.49%.
On to `COc1ccc(C2CC(=O)Nc3c2c(C)nn3-c2nncc(-c3ccc(C)cc3)n2)c(OC)c1OC` (stereo not drawn), for which the activity change, negative = inhibition was inactive: 5.68%.
With `Cc1cccc(CCNC(=O)c2sc3nc4n(c(=O)c3c2C)CCCC4)c1`, the activity change, negative = inhibition is inactive: -2.85%.
As for `Clc1ccc(-c2noc3ncnc(NCCc4ccccc4)c23)cc1`, the activity change, negative = inhibition is inactive: -2.33%.
The same measure for `CCC(Sc1nc2ccccc2c(=O)n1CCc1ccc(OC)c(OC)c1)C(=O)N(CC)CC` (stereo not drawn): inactive: -6.54%.
As to `COc1c(C)cccc1C(=O)Nc1cccc2ccc(C)nc12`, the activity change, negative = inhibition was inactive: -6.4%.
The same measure for `CCn1cc(C(=O)OCC(=O)Nc2cccc(C(C)=O)c2)c(=O)c2ccc(C)nc21`: inactive: -4.28%; for `CCOc1ccc(CN2CCc3nc(Nc4ccc(OC)cc4OC)ncc3C2)cc1`: inactive: -3.53%; for `COc1ccc(CNc2oc(-c3ccc(COc4ccccc4C)o3)nc2C#N)cc1`: inactive: -3.1%.
As for `CC1(C)CCC2=C(O1)c1ccccc1C(=O)C2=O`, the activity change, negative = inhibition was inactive: -17.6%.
The figure for `Cc1ccc(Cl)cc1N1CCN(Cc2nnc(-c3ccc4c(c3)OCO4)o2)CC1` is inactive: -8.14%.
The figure for `O=C1C(SCCO)=C(SCCO)C(=O)c2ccccc21` is inactive: -7.15%; for `CC(C)c1ccc(S(=O)(=O)c2nnn3c2nc(N2CCN(C)CC2)c2sccc23)cc1` it is inactive: 5.79%.
For `CCCc1cc(=O)n2[nH]c(NC(=O)c3ccc(C(C)(C)C)cc3)nc2n1`, the activity change, negative = inhibition was inactive: 14.5%.
The figure for `COc1ccc(C(=O)Nc2nc3nc(C)c(Cc4ccccc4)c(=O)n3[nH]2)cc1OC` is inactive: 10.1%; for `CC(=O)c1cccc(NC(=O)c2oc3c(c2C)-c2nn(Cc4ccc(Cl)cc4)cc2CC3)c1` it is inactive: 5.33%.
In the case of `COc1ccc(S(=O)(=O)c2cnc3ccc(Cl)cc3c2N2CCCCC2C)cc1` (stereo not drawn), the activity change, negative = inhibition is inactive: -0.395%.
As to `COc1cc(Nc2nc(SCC(=O)c3ccc(Br)cc3)nc3ccccc23)cc(OC)c1`, the activity change, negative = inhibition was inactive: -5.41%.
The figure for `N#C/C(=C\c1ccc(-c2ccc(C(=O)O)cc2)o1)C(=O)Nc1ccccc1C(=O)O` is inactive: 3.94%; for `O=C(NCCc1ccccc1)c1nc(-c2ccc(Cl)cc2)n2c1CCCCC2` it is inactive: -14.3%; for `COc1ccccc1NC(=O)CSc1nc(-c2ccc(C(C)(C)C)cc2)c(C#N)c(=O)[nH]1` it is inactive: -7.97%.
With `CCc1ccc(S(=O)(=O)c2cnc3ccc(OC)cc3c2N2CCCC(C)C2)cc1` (stereo not drawn), the activity change, negative = inhibition is inactive: -1.53%.
Consider `Cc1ccc(Nc2c(-c3ccsc3)nc3cccc(C)n23)cc1`, for which the activity change, negative = inhibition was inactive: 11.1%.
As to `COc1ccc(Cl)cc1NC(=O)CSC1=Nc2ccccc2C2=NC(CC(=O)NC3CCCCC3)C(=O)N12` (stereo not drawn), the activity change, negative = inhibition is inactive: 5.19%.
The same measure for `CCC(C(=O)Nc1cc(OC)ccc1OC)n1c(=O)c(C(F)(F)F)nc2ccccc21` (stereo not drawn): inactive: -12.7%.
Regarding `CCCCCSc1nnc2c(n1)OC(CC)Nc1ccc(Br)cc1-2` (stereo not drawn), the activity change, negative = inhibition is inactive: 6.46%.
`O=C(c1ccc2c(c1)N(Cc1ccccc1Cl)C(=O)c1ccccc1S2)N1CCCC1`: the activity change, negative = inhibition is inactive: 0.433%.
The same measure for `Cc1cc(NC(=O)c2oc3c(c2C)-c2[nH]ncc2CC3)ccc1Br`: inactive: 3.53%.
The same measure for `COc1ccc(N2C(=O)CSC23C(=O)N(CC(=O)NCc2ccccc2)c2ccccc23)cc1` (stereo not drawn): inactive: 2.37%; for `C=Cc1ccc(CSc2nc(-c3ccccc3C)nc3c2Cc2c(CO)cnc(C)c2O3)cc1`: inactive: -7.44%; for `Cc1cccc(N2CCN(C(=O)C(C)n3nc(C)n4c(cc5occc54)c3=O)CC2)c1C` (stereo not drawn): inactive: 2.87%.
As for `CCn1cc(C(=O)NCCc2ccccc2)c(=O)c2cc(S(=O)(=O)N3CCCCCC3)ccc21`, the activity change, negative = inhibition is inactive: -0.945%.
Consider `COc1ccc(S(=O)(=O)N(CC(=O)NC(C)c2ccccc2)c2ccc(C)cc2)cc1OC` (stereo not drawn), for which the activity change, negative = inhibition is inactive: -2.48%.
The same measure for `Cc1ccc2nc(-c3ccccn3)c(Nc3ccccc3C)n2c1`: inactive: -8.36%; for `COc1ccc(-c2nc(CSCC(=O)NCc3ccccc3Cl)c(C)o2)cc1OC`: inactive: 6.04%.
The figure for `Cn1c(=O)c2c(-c3ccc(Cl)cc3)n(CCc3ccccc3)cc2n(C)c1=O` is inactive: -10.7%; for `CCCCCN1C(C(=O)c2ccccc2)=C(OC(=O)CC)c2ccccc2S1(=O)=O` it is inactive: -0.103%; for `CCc1nc(Nc2ccc(F)c(Cl)c2)c2c3c(sc2n1)CCCC3` it is inactive: -7.13%.
The same measure for `Cc1cccc(N2CCN(C(=O)Cn3ncc4c3-c3cc(C)ccc3OC4)CC2C)c1` (stereo not drawn): inactive: -3.46%; for `Cc1nc2cc(C(=O)NCCC3=CCCCC3)ccc2n1-c1ccc(Br)cc1`: inactive: 0.218%.
For the compound `O=C(COc1ccccc1Cl)N(Cc1ccco1)Cc1ccco1`, the activity change, negative = inhibition is inactive: -2.8%.
Consider `Cc1ccc2ncc(S(=O)(=O)c3ccccc3)c(N3CCCCC3C)c2c1` (stereo not drawn), for which the activity change, negative = inhibition was inactive: -7.58%.
The figure for `N#CC1=C2SCN(C3CCCCC3)CN2C(=O)CC1c1ccc(Br)cc1` (stereo not drawn) is inactive: -4.55%; for `CCN(CC)CCCNC(=O)c1ccc2c(c1)N(Cc1c(F)cccc1Cl)C(=O)c1ccccc1S2` it is inactive: 3.84%.
